Patent US11207283B2 (priority 2016, dated 2021)
Some entries share one result that the patent states for a list of compounds. At least one compound was matched to its structure with a doubt left.

test system: P. falciparum parasite, D6 (Sierra Leone); experiment: Malaria SYBR Green I-based fluorescence (MSF) assay; format: cell-based, Plasmodium falciparum; conditions: D6 strain, 72 hours, range 0.5-10000 ng/mL

SMILES | IC50 against P. falciparum
NC1CC(C(=O)O)CC1=C(C(F)(F)F)C(F)(F)F (stereo not drawn) [Compound 2] | > 10,000 ng/ml
NC1CC(C(=O)O)CC1=C(Cl)Cl (stereo not drawn) [Compound 5] | > 10,000 ng/ml
NCc1c(CC(=O)O)cccc1C(F)(F)F [Compound 11] | > 10,000 ng/ml
